Patent publication US10085449B2, “N-[1-((6-chloropyridin-3-yl)methyl)pyridin-2(1H)-ylidene]-2,2,2- trifluoroacetamide for control of agricultural/horticultural pests” (priority 2010, dated 2018)
Like-named read-outs stand apart in the source and are kept apart here. For part of these data: The name of at least one read-out is uncertain. Some results were stated once for a whole list of compounds, not compound by compound.

Key:
Type in all cases: in vivo
common cutworm = conditions: 500 ppm foliar application, third-instar larvae on cabbage leaf discs, 3 days after release
Method: (§1) Leaf discs 5.0 cm in diameter were cut from cabbage plants grown in pots, and these were sprayed with solutions of the inventive compounds at a predetermined concentration prepared to 50% acetone/water (containing 0.05% Tween 20). The treated leaf discs were air dried, following which third-instar larvae were released onto the discs. The leaf discs and larvae were then held in an incubation chamber at 25° C. (16-hour period of light, 8-hour dark period). Three days after released, the numbers of live and dead insects were counted, and the mortality was calculated from the following formula. This was a two-replication test. Mortality (%)=[number of dead insects/(number of live insects+number of dead insects)]×100

diamondback moth = conditions: second-instar larvae on cabbage leaf discs, 3 days after release
Method: as §1, with “second-instar” for “third-instar”

rice leaf bug = conditions: for Mortality: 50 ppm foliar application (wheat seedling shoots immersed 30 seconds), second-instar larvae, 3 days after release; for Insecticidal effects (mortality), rice leaf bug second-instar larvae: 3 or 4 DAA
Method: The treated seedlings were air-dried, then each was placed in a glass cylinder and two second-instar rice leaf bug larvae were released within the same glass cylinder. Following release of the insects, the tube was capped and held in an incubation chamber at 25° C. (16-hour period of light, 8-hour dark period). […] Three days after released, the numbers of live and dead insects were counted, and the mortality was calculated from the following formula. Mortality (%)=[number of dead insects/(number of live insects+number of dead insects)]×100

western flower thrips = conditions: first-instar larvae on bean leaf discs, 3 days after release
Method: as §1, with “2.8” for “5.0”, “bean” for “cabbage”, “first-instar” for “third-instar”

cotton aphid = conditions: first-instar larvae on cucumber leaf discs, 3 days after release
Method: as §1, with “2.0” for “5.0”, “cucumber” for “cabbage”, “first-instar” for “third-instar”

[1] = system: Haemaphysalis longicornis; conditions: 200 ppm acetone solution (30 μL) dry film, larval ticks, 1 day after release
Method: Glass vials having a capacity of 4 mL were each filled with 30 μL of an acetone solution containing 200 ppm or 10 ppm of the respective compounds. These filled vials were placed on a shaker and air-dried while being spun, thereby forming dry films of the compounds on the inner walls of the vials. After the vials had been dried for at least 24 hours, ten larval ticks (Haemaphysalis longicornis) were released into each vial, following which the vials were capped. The vials were then left at rest in an incubation chamber at 25° C., 85% humidity and complete darkness. One day after released, the numbers of live and dead ticks were counted, and the mortality was calculated from the following formula.
This test was carried out as two replications. Mortality (%)=[number of dead ticks/(number of live ticks+number of dead ticks)]×100

Row | Structure (SMILES) | Mortality (common cutworm) | Mortality (diamondback moth; 100 ppm foliar application) | Mortality (diamondback moth; 500 ppm foliar application) | Mortality (rice leaf bug) | Mortality (western flower thrips; 500 ppm foliar application) | Mortality (cotton aphid; 500 ppm foliar application) | Mortality (cotton aphid; 100 ppm foliar application) | also measured
1 | CCN(Cc1ccc(Br)cc1Br)S(=O)(=O)C(F)(F)F [Compound 193] | at least 80% | at least 80% | at least 80% | at least 80% | at least 80% | at least 80% | – | Mortality (western flower thrips; 100 ppm foliar application): at least 80%
2 | CCN(Cc1ccc(C(F)(F)F)nc1)S(=O)(=O)C(F)(F)F [Compound 131] | – | – | at least 80% | – | at least 80% | at least 80% | at least 80% | Mortality [1]: at least 80%
3 | CCN(Cc1cc(Br)cc([N+](=O)[O-])c1)S(=O)(=O)C(F)(F)F [Compound 194] | – | at least 80% | at least 80% | at least 80% | – | at least 80% | – | –
4 | N#CN(CCSCc1ccco1)Cc1ccc(Cl)nc1 [Compound 49] | – | – | at least 80% | – | at least 80% | at least 80% | at least 80% | Mortality [1]: at least 80%
5 | CCN(Cc1cccc([N+](=O)[O-])c1)S(=O)(=O)C(F)(F)F [Compound 192] | – | – | – | at least 80% | – | at least 80% | – | –
6 | CC(c1ccc(Cl)nc1)N(C#N)CCF (stereo not drawn) [Compound 92] | at least 80% | at least 80% | at least 80% | – | – | at least 80% | at least 80% | Mortality [1]: at least 80%
7 | CCN(Cc1cc(Br)cc(Br)c1)S(=O)(=O)C(F)(F)F [Compound 189] | at least 80% | at least 80% | at least 80% | at least 80% | at least 80% | at least 80% | – | –
8 | CCN(Cc1ccc([N+](=O)[O-])cc1)S(=O)(=O)C(F)(F)F [Compound 183] | – | at least 80% | at least 80% | at least 80% | at least 80% | at least 80% | at least 80% | –
9 | CC(c1ccc(Cl)nc1)N(CC(F)F)C(=O)C(F)(F)F (stereo not drawn) [Compound 96] | at least 80% | – | – | – | – | at least 80% | at least 80% | Mortality [1]: at least 80%
10 | O=C(N=c1ccccn1Cc1cnc(Cl)nc1)C(F)(F)F [Compound 243, N-[1-((2-chloropyrimidin-5-yl)methyl)pyridin-2(1H)-ylidene]-2,2,2-trifluoroacetamide] | – | – | – | – | – | – | – | Insecticidal effects (mortality), rice leaf bug second-instar larvae (rice leaf bug; 50 (dose unit not given)): 100
11 | O=C(N=c1ccccn1Cc1ccc(Cl)nc1)C(F)F [Compound 238, N-[1-((6-chloropyridin-3-yl)methyl)pyridin-2(1H)-ylidene]-2,2-difluoroacetamide] | – | – | – | – | – | – | – | Insecticidal effects (mortality), rice leaf bug second-instar larvae (rice leaf bug; 50 (dose unit not given)): 100
12 | C#CCN(Cc1cc(Cl)cc(Cl)c1)S(=O)(=O)C(F)(F)F [Compound 184] | at least 80% | at least 80% | at least 80% | at least 80% | at least 80% | at least 80% | – | –
13 | CCN(C(C)c1ccc(C(F)(F)F)nc1)S(=O)(=O)C(F)(F)F (stereo not drawn) [Compound 114] | – | at least 80% | at least 80% | – | at least 80% | – | – | Mortality [1]: at least 80%
14 | O=S(=O)(N(Cc1ccc(Cl)nc1)CC(F)F)C(F)(F)F [Compound 104] | at least 80% | – | at least 80% | – | at least 80% | at least 80% | – | Mortality (western flower thrips; 100 ppm foliar application): at least 80%
15 | N#CN(CCF)Cc1ccc(Cl)nc1 [Compound 82] | at least 80% | – | at least 80% | – | – | at least 80% | – | Mortality (cotton aphid; 20 ppm foliar application): at least 80%
16 | CCN(C(=O)C(F)(F)F)C(C)c1ccncc1 (stereo not drawn) [Compound 132] | – | – | – | at least 80% | – | at least 80% | – | Mortality [1]: at least 80%
17 | CC(c1ccc(Cl)nc1)N(CCF)C(=O)C(F)(F)F (stereo not drawn) [Compound 89] | at least 80% | at least 80% | at least 80% | – | – | at least 80% | at least 80% | Mortality [1]: at least 80%; Mortality (cotton aphid; 20 ppm foliar application): at least 80%
18 | CCCCN(Cc1ccc(Cl)nc1)S(=O)(=O)C(F)(F)F [Compound 141] | – | – | at least 80% | at least 80% | at least 80% | – | at least 80% | –
19 | CC(c1ccc(Cl)nc1)N(CC(F)F)S(=O)(=O)C(F)(F)F (stereo not drawn) [Compound 108] | at least 80% | – | at least 80% | – | at least 80% | – | – | Mortality [1]: at least 80%
20 | O=C(N=c1ccccn1Cc1ccc(Cl)nc1)C(F)(F)Cl [Compound 239, 2-chloro-N-[1-((6-chloropyridin-3-yl)methyl)pyridin-2(1H)-ylidene]-2,2-difluoroacetamide] | – | – | – | – | – | – | – | Insecticidal effects (mortality), rice leaf bug second-instar larvae (rice leaf bug; 50 (dose unit not given)): 100
21 | CCN(Cc1ccc(Cl)nc1)S(=O)(=O)C(F)(F)F [Compound 144] | – | – | at least 80% | at least 80% | at least 80% | – | – | –
22 | CC(c1ccc(Cl)nc1)n1ccccc1=NC(=O)C(F)(F)F (stereo not drawn) [Compound 237, N-[1-(1-(6-chloropyridin-3-yl)ethyl)pyridin-2(1H)-ylidene]-2,2,2-trifluoroacetamide] | – | – | – | – | – | – | – | Insecticidal effects (mortality), rice leaf bug second-instar larvae (rice leaf bug; 10 (dose unit not given)): 67
23 | CCCN(Cc1ccc(Cl)nc1)S(=O)(=O)C(F)(F)F [Compound 140] | at least 80% | – | at least 80% | – | at least 80% | – | at least 80% | –
24 | O=C(N=c1ccccn1Cc1ccc(Cl)nc1)C(F)(F)C(F)(F)F [Compound 242, N-[1-((6-chloropyridin-3-yl)methyl)pyridin-2(1H)-ylidene]-2,2,3,3,3-pentafluoropropanamide] | – | – | – | – | – | – | – | Insecticidal effects (mortality), rice leaf bug second-instar larvae (rice leaf bug; 50 (dose unit not given)): 100
25 | C#CCN(Cc1ccc(Cl)nc1)S(=O)(=O)C(F)(F)F [Compound 128] | at least 80% | at least 80% | at least 80% | – | at least 80% | – | at least 80% | Mortality (western flower thrips; 100 ppm foliar application): at least 80%; Mortality (cotton aphid; 20 ppm foliar application): at least 80%
26 | CCN(Cc1ccc(Br)cc1)S(=O)(=O)C(F)(F)F [Compound 190] | at least 80% | at least 80% | at least 80% | at least 80% | at least 80% | – | – | –
27 | CCN(C#N)Cc1ccc(C(F)(F)F)nc1 [Compound 46] | at least 80% | – | – | – | – | at least 80% | – | –
